Source: publication doi:10.1101/2020.02.12.945477

B1: PfCAF40 (protein, UniProt Q8I427 1-652)
chain: MVINNDMVKGSNKMKNLNKNIFPVNPNNNVVSNINSSKLNQGGVCIAEDINMGSVNNTNDLNNSDEIINCGNMNKSEDINKPGDINNSDDVNNPDDINNKINVNGIHSPLNESLQNLDRNNMSVCNLGNVTTPVNNINNNINNNINCNNNNNNNNNNSSNSNSNSNSNSNPICINNNENNKYKNSNKCNDFHKDNTTSEQDQTKNDNNINNLSSGQENTINNEEEKKKVYQLVYDLCFSEKRENALLELSRKRETYHDIAPVLWNSFGTITTLLQEIVSIYPQLSPPLLTTSSSNRVCNSLALLQCVASHPETKQHFLNAHIPLFLYPFLNAESKNRPFEYLRLTSLGVIGALVKVDNPEVINFLLQTEIIPLCLRIMETGSELSKTVATFIVQKILIDELGLNYICATPERFYAVSTVLANMVNSLVENPSSRLLKHIVRCYLRLSENARALEALKYCLPEPLRHVHKTFLPCLKEDPFTKKWLLQLLYNINNDDENLTMKNTNFINHNTNQNTSNINNQTLNKISQNVYTNLNVPTALNEININIPKTDTHTNIHNINDNIENSSSQSFNNKINDTNLKCGKINNNKLNPDLTNNDINDNNINDNNNDNNDNNNINDNIMNDDNNNINGDSVNNNNMNDDSVNNNNMNDN
B2: pyruvate kinase PF3D7_0626800 (protein, UniProt C6KTA4 1-511)
chain: MSSFKYKNSAAGASMQSAANITLRQILEPNNVNLRSKKTHIVCTLGPACKSVETLVKLIDAGMDICRFNFSHGSHEDHKEMFNNVLKAQELRPNCLLGMLLDTKGPEIRTGFLKNKEVHLKEGSKLKLVTDYEFLGDETCIACSYKKLPQSVKPGNIILIADGSVSCKVLETHEDHVITEVLNSAVIGERKNMNLPNVKVDLPIISEKDKNDILNFAIPMGCNFIAASFIQSADDVRLIRNLLGPRGRHIKIIPKIENIEGIIHFDKILAESDGIMIARGDLGMEISPEKVFLAQKLMISKCNLQGKPIITATQMLESMTKNPRPTRAEVTDVANAVLDGTDCVMLSGETAGGKFPVEAVTIMSKICLEAEACIDYKLLYQSLVNAIETPISVQEAVARSAVETAESIQASLIIALTETGYTARLIAKYKPSCTILALSASDSTVKCLNVHRGVTCIKVGSFQGTDIVIRNAIEIAKQRNMAKVGDSVIAIHGIKEEVSGGTNLMKVVQIE
B3: ALBA1 PF3D7_0814200 (protein, UniProt Q8IAX8 1-248)
chain: MKKDREPIDEDEMRITSTGRMTNYVNYGAKILGDEDKKSIKIKATGNAIGKAVTLAEIIKRRFKGLHQITRCGSTVITDQYVSGQDNSEHVVQEKTVSFIEILLSREQLDMKDAGYQPPLDEKYVKEMTPEEIVNSRPFRRGGFRPRFYRGFRGGRGGFLRRGGYRGFGDRVYEPRSSFRGGRGSGYGGNFGRGGYRSGGGMGGGFRGGFRGGFRGGRDGGYRGGNRGGSRSGFRGGRGGFRGGRALS
B4: exported protein PF3D7_0501000 (protein, UniProt Q8I490 1-260)
chain: MMNKKSMQTKNFLSERNYGSIDQNVRTKNKRRLMKFQSKSKAKSFLFLLELMVFSLFIWILKSAKHNVSSKSIYNKNKFHNTFNRRDTRVLAEQEDQYIRNPNNSNYPDRDLDICNWDEPHNPEKNPCAIPQDDLSNEGIEIIDYVDKKEEEKLKNDLKIHFGKQHYALIKDIYKPIQSYANNFSKVVDHYVGSLKRINNAFNLDILRTVICTAFLIQPIVLLMKLHPELLVHIPINIIISMVVFKLMHKSLRNEQESNK

Columns and labels:
Experiment in all cases: affinity purification with mass spectrometry
[1] = target: PfNOT1.1 (P. falciparum (endogenous in strain T996)) (UniProt Q8IIW4)
[2] = target: PfNOT1.2 (P. falciparum (endogenous in strain T996)) (UniProt Q8ILS4)
[3] = target: PfNOT4 (P. falciparum (endogenous in strain T996)) (UniProt Q8I569)
[4] = target: PfNOT4 (P. falciparum (endogenous in strain T996)) (UniProt Q8I569); remark: listed apart in the source
[5] = target: PfCAF1 (P. falciparum (endogenous in strain T996)) (UniProt C0H4T9)
[6] = target: PfNOT1.2 (P. falciparum (endogenous in strain T996)) (UniProt Q8ILS4); remark: listed apart in the source
[7] = target: PfNOT1.1 (P. falciparum (endogenous in strain T996)) (UniProt Q8IIW4); remark: listed apart in the source

Molecule	binding [1]	binding [2]	other results
ApiAP2 transcription factor PF3D7_1239200 (from UniProt Q8I531 1-2577)	binds	–	–
EIF3G PF3D7_0815600 (from UniProt Q8IAZ3)	–	binds	–
PAIP1 PF3D7_1107300 (from UniProt Q8IIS9)	–	binds	–
PfCAF1 (from UniProt C0H4T9 1-1774)	binds	binds	–
PfNOT1.1 (from UniProt Q8IIW4 1-3371)	–	no binding	binding [3]: no binding
PfNOT1.2 (from UniProt Q8ILS4 1-4466)	no binding	–	binding [3]: no binding
acetyltransferase PF3D7_1323300 (from UniProt Q8IE83)	binds	–	–
chromodomain helicase DNA-binding protein 1 homolog PF3D7_1023900 (from UniProt Q8IJG6 1-3328)	binds	–	–
polyadenylate-binding protein PABP PF3D7_1224300 (from UniProt Q8I5H4)	–	binds	–
polyadenylate-binding protein PF3D7_1360900 (from UniProt C0H5J5)	binds	–	–
protein phospharase PP1 PF3D7_1414400 (from UniProt Q8ILV1 1-304)	binds	–	–
B1	–	–	binding [4]: binds; binding [5]: binds; binding [6]: binds; binding [7]: binds
B2	–	–	binding [7]: binds
B3	–	–	binding [6]: binds
B4	–	–	binding [7]: binds

Read-outs that look alike come from different tables or passages of the source. No constants are given. Whether binding was seen depends on the method and setting. In cells and extracts the contact can be indirect. A yes stands for co-enrichment or nearness to the bait. Other partners may have been found. For part of these data: A no says only that the protein was not detected with the bait.
